In the supplement of paper PMC10849652:
The list shows a part of the results.

Amino acid sequences for entries named in this document (tags omitted). A change or cut given only in a name is not applied to a line headed by its entry.
UniProt Q96PV6, whole entry, looked up: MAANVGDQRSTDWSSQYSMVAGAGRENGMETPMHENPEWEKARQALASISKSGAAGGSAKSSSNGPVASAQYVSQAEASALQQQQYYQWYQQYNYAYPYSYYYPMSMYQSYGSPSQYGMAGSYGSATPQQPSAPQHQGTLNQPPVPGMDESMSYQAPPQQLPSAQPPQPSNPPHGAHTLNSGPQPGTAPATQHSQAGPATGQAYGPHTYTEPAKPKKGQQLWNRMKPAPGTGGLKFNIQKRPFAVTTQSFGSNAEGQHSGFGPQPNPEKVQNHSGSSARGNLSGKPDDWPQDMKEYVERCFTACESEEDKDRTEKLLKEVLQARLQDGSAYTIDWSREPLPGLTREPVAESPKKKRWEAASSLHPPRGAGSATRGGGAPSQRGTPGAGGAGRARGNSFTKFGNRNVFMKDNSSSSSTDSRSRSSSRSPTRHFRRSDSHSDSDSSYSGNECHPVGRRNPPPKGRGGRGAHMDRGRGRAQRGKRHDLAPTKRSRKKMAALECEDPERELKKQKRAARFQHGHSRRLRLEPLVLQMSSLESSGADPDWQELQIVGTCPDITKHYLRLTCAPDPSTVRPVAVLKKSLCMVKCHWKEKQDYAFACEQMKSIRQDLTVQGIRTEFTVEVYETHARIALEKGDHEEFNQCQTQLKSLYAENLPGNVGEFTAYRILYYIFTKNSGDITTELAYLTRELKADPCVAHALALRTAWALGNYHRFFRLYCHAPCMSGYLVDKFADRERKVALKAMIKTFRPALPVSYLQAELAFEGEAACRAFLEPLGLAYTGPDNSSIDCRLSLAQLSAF
UniProt Q68DH5: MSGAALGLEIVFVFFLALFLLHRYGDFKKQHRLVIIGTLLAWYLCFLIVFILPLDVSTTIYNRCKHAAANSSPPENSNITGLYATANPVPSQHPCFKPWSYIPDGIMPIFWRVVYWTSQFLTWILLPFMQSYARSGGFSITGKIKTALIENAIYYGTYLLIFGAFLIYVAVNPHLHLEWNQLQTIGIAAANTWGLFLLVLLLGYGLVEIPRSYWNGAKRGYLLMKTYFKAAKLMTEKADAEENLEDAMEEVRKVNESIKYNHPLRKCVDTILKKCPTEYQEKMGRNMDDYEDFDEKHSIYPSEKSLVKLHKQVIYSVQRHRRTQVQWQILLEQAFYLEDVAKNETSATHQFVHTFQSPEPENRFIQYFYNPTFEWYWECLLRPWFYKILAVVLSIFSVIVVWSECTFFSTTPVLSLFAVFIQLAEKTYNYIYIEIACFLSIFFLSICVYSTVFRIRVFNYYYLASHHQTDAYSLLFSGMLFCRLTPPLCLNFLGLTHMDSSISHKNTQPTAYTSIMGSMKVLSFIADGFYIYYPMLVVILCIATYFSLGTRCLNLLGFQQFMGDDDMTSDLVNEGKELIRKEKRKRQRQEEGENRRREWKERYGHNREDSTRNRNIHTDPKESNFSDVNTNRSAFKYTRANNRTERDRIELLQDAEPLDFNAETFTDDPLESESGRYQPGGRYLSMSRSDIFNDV
UniProt Q9BU23: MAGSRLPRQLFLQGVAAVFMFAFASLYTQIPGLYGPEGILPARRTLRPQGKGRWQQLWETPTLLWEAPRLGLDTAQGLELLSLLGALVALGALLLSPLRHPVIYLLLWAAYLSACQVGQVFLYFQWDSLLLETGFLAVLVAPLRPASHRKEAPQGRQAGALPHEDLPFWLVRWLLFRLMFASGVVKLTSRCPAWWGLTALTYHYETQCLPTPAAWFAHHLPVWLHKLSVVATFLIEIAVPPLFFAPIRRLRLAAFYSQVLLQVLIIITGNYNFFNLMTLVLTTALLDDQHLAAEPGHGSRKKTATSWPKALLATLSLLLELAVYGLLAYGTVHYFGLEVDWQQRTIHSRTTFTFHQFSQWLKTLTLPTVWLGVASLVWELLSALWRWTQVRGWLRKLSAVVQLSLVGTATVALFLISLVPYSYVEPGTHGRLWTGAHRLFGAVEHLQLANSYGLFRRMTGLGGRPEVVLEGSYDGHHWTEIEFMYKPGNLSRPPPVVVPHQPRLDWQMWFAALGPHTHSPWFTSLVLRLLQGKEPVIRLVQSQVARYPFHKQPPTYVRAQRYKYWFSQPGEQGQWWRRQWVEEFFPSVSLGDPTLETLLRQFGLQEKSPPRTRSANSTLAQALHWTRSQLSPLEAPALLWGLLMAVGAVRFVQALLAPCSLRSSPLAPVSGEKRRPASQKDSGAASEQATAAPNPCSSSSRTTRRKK
UniProt Q13094: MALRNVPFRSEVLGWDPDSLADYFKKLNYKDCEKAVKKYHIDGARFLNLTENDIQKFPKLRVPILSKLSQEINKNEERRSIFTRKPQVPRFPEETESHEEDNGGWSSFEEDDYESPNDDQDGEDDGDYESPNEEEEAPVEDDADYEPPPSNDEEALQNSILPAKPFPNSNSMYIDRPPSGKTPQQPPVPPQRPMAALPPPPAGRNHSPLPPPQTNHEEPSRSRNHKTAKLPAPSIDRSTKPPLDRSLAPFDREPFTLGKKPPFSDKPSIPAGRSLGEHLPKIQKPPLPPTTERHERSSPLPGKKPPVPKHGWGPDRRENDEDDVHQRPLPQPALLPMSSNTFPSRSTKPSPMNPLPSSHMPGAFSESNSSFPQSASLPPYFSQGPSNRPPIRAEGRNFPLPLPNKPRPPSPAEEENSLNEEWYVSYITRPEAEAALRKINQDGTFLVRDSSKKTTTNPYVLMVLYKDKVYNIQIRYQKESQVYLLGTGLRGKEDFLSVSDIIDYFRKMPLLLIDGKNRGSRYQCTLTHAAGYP
UniProt Q92604: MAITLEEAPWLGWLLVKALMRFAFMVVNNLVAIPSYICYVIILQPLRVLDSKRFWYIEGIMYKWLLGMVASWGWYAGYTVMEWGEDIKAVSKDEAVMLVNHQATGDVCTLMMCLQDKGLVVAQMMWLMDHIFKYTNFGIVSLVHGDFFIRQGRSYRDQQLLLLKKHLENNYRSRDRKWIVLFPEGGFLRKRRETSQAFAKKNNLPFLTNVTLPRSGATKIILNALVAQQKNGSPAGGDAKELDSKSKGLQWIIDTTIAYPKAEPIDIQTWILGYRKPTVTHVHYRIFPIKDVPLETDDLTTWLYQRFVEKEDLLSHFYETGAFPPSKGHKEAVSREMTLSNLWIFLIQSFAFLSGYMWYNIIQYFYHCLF
UniProt Q9P244: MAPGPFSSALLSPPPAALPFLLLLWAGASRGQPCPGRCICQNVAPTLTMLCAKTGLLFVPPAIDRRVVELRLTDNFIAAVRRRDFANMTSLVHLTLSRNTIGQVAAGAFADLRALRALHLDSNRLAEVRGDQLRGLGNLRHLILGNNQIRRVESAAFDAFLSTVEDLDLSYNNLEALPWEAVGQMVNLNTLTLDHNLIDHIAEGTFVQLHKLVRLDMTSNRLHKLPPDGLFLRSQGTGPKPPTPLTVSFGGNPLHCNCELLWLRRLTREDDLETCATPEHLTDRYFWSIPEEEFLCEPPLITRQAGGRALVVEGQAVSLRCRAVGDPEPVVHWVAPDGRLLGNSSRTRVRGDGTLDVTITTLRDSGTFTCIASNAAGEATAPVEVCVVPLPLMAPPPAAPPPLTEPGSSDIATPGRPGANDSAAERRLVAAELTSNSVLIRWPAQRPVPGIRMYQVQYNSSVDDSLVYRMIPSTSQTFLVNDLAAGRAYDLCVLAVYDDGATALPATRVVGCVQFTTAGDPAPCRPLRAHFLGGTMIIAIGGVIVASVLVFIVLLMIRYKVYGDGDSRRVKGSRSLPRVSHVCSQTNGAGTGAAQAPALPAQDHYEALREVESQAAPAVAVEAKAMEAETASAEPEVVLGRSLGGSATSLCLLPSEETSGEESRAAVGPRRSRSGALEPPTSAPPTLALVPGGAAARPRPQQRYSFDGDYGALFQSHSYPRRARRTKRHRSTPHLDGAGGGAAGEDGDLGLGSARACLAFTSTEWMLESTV
UniProt P49916: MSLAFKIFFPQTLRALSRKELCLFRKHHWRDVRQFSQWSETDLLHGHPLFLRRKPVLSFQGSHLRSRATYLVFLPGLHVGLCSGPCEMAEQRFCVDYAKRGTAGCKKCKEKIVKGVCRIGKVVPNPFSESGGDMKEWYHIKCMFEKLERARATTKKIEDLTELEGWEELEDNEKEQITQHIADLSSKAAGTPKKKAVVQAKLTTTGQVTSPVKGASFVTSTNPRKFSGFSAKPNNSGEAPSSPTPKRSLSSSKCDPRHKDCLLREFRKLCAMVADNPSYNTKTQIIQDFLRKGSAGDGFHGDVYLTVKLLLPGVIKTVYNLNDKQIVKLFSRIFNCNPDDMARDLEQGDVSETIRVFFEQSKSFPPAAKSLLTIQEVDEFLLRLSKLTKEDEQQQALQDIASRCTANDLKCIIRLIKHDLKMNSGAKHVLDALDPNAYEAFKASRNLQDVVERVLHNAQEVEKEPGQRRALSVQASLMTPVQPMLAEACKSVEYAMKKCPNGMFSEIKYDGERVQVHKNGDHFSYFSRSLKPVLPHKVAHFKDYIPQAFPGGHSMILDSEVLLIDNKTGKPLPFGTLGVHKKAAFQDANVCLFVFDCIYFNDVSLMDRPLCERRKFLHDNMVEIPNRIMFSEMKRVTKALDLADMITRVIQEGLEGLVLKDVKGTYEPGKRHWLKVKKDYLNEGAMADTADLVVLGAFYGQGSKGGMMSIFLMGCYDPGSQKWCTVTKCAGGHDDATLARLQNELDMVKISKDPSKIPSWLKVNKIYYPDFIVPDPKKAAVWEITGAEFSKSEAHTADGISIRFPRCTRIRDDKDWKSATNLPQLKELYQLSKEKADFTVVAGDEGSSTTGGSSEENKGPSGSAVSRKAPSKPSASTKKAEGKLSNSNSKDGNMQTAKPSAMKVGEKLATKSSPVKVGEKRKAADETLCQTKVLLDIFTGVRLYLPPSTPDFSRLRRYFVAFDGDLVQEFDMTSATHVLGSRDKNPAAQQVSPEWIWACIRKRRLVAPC
UniProt Q8WVP7: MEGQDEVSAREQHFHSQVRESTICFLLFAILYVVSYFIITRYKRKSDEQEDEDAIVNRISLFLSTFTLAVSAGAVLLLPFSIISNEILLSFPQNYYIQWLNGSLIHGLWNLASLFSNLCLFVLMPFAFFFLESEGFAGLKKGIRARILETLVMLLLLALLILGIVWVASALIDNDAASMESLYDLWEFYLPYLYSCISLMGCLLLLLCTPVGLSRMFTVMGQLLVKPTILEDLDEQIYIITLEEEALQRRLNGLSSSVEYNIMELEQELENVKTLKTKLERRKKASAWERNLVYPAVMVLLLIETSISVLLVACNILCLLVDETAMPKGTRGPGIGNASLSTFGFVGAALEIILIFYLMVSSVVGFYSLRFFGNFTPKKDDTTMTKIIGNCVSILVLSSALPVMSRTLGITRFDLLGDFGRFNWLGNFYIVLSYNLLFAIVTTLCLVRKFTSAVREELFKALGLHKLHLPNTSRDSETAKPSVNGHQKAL
UniProt A6NK58: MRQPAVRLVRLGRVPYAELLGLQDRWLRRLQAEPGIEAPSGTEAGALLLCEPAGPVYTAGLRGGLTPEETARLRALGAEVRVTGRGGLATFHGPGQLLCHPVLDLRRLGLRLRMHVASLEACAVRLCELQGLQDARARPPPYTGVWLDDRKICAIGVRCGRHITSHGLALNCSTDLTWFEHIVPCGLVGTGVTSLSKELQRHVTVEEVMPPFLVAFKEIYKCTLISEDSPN
UniProt Q71RC2, whole entry, looked up: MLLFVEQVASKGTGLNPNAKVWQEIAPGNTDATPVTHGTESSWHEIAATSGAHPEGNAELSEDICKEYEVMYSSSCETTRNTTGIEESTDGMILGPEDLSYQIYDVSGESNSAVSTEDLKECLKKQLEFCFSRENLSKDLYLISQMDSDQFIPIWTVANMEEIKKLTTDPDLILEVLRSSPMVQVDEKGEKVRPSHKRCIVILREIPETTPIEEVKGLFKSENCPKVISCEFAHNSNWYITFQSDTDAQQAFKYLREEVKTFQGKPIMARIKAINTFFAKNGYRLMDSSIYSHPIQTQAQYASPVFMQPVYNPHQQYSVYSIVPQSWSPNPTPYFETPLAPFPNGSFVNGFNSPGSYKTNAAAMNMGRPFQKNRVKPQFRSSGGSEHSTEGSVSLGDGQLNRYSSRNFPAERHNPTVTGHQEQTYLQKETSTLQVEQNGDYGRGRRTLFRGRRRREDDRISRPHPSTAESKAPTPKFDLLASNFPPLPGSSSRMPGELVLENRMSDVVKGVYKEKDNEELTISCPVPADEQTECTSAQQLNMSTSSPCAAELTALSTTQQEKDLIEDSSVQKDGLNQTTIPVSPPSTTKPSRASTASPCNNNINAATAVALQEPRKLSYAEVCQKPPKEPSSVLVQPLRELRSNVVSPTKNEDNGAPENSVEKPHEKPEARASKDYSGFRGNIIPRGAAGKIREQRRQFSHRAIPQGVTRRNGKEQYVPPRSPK

How the values were obtained:
Test in all cases: log2 fold change, soluble protein after heating vs DMSO (PISA); higher = thermal stabilisation; K562 cells, 10 uM, 30 min; active = over 0.2 and 3.5 SD of the protein, either way, in both replicates (recomputed)
[1] = compound: CS(=O)(=O)c1ccc(-c2cnc(N)c(C(=O)Nc3ccccc3)n2)cc1
Method in brief: (§1)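 K562 cells at 2×10^6 cells/mL were given 10 μM compound for 30 min. Aliquots then went through 3 min of heating across 48°C-58°C, were pooled, and were extracted in PBS with 0.5% NP-40 at 4°C, and the supernatant after 21,000xg for 90 min was quantified by TMTpro 16plex LC-MS/MS with channel sums equalised. Thermal stability relative to control samples, from duplicates, is given as log2 fold change.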

[2] = compound: C[C@@H](Oc1cc(-c2cnn(C3CCNCC3)c2)cnc1N)c1c(Cl)ccc(F)c1Cl [crizotinib]
Method in brief: as §1

[3] = compound: C[C@@H]1COCCN1C2=NC(=NC(=C2)C3(CC3)S(=O)(=O)C)C4=C5C=CNC5=CC=C4
Method in brief: as §1

[4] = compound: C[C@H](C1=CC=C(C=C1)C(=O)NC2=C3C=CNC3=NC=C2)N
Method in brief: as §1

[5] = compound: Cc1cc(Nc2cc(CN3CCOCC3)c3nc(C)c(Cc4ccc(Cl)cc4F)n3n2)n[nH]1 [gandotinib]
Method in brief: as §1

[6] = compound: Cc1cc(SCc2sc(-c3ccc(C(F)(F)F)cc3)nc2C)ccc1OCC(=O)O
Method in brief: as §1

[7] = compound: Cc1ccc(-n2nc(C(C)(C)C)cc2NC(=O)Nc2ccc(OCCN3CCOCC3)c3ccccc23)cc1 [doramapimod]
Method in brief: as §1

[8] = compound: Cc1ccc(C(=O)N(CCCN)[C@@H](c2nc3cc(Cl)ccc3c(=O)n2Cc2ccccc2)C(C)C)cc1 [ispinesib]
Method in brief: as §1

[9] = compound: C[C@H](Nc1ncnc2nc[nH]c12)c1cc2cccc(Cl)c2c(=O)n1-c1ccccc1 [duvelisib]
Method in brief: as §1

[10] = compound: Cc1cc(Nc2cc(N3CCN(C)CC3)nc(Sc3ccc(NC(=O)C4CC4)cc3)n2)n[nH]1 [tozasertib]
Method in brief: as §1

LENG8 (UniProt Q96PV6)
log2 fold change [1]: inactive: 0.022
log2 fold change [2]: inactive: -0.342
log2 fold change [3]: inactive: 0.112
log2 fold change [4]: inactive: 0.107
log2 fold change [5]: inactive: -0.094
log2 fold change [6]: inactive: 0.055
log2 fold change [7]: inactive: 0.039
log2 fold change [8]: inactive: 0.241

LMBRD2 (UniProt Q68DH5)
log2 fold change [1]: inactive: 0.034
log2 fold change [2]: inactive: -0.156
log2 fold change [3]: inactive: -0.042
log2 fold change [4]: inactive: -0.152
log2 fold change [5]: inactive: -0.049
log2 fold change [6]: inactive: -0.065
log2 fold change [7]: inactive: 0.011
log2 fold change [8]: active: -0.328

LINS1 (UniProt Q8NG48)
log2 fold change [1]: inactive: -0.01
log2 fold change [2]: inactive: -0.011
log2 fold change [3]: inactive: 0.169
log2 fold change [7]: inactive: -0.014
log2 fold change [8]: inactive: 0

LMF2 (UniProt Q9BU23)
log2 fold change [1]: inactive: 0.039
log2 fold change [2]: inactive: 0.016
log2 fold change [3]: inactive: -0.05
log2 fold change [4]: inactive: 0.053
log2 fold change [5]: inactive: 0.023
log2 fold change [6]: inactive: 0.023
log2 fold change [7]: inactive: 0.046
log2 fold change [8]: inactive: -0.075

LPIN3 isoform 2 (UniProt Q9BQK8)
log2 fold change [1]: inactive: 0.016
log2 fold change [3]: inactive: 0.125
log2 fold change [4]: inactive: 0.011
log2 fold change [5]: inactive: -0.059
log2 fold change [6]: inactive: 0.015
log2 fold change [8]: inactive: -0.037

LPCAT3 (UniProt Q6P1A2)
log2 fold change [1]: inactive: 0.091
log2 fold change [2]: inactive: -0.121
log2 fold change [3]: inactive: 0.171
log2 fold change [4]: inactive: 0.006
log2 fold change [5]: inactive: -0.167
log2 fold change [6]: inactive: 0.027
log2 fold change [7]: inactive: -0.042
log2 fold change [8]: active: -0.696

LARP7 isoform 3 (UniProt Q4G0J3)
log2 fold change [1]: inactive: -0.001
log2 fold change [2]: inactive: 0.022
log2 fold change [3]: inactive: 0.068
log2 fold change [4]: inactive: -0.077
log2 fold change [5]: inactive: -0.065
log2 fold change [6]: inactive: 0.088
log2 fold change [7]: inactive: 0.012
log2 fold change [8]: inactive: -0.007

LCP2 (UniProt Q13094)
log2 fold change [1]: inactive: 0.006
log2 fold change [2]: inactive: -0.041
log2 fold change [3]: inactive: -0.007
log2 fold change [9]: inactive: 0.011
log2 fold change [5]: inactive: -0.203
log2 fold change [10]: inactive: -0.052
log2 fold change [6]: inactive: -0.017
log2 fold change [7]: inactive: -0.022
log2 fold change [8]: inactive: -0.104

LEO1 (UniProt Q8WVC0)
log2 fold change [1]: inactive: 0.092
log2 fold change [2]: inactive: 0.026
log2 fold change [3]: inactive: -0.202
log2 fold change [4]: inactive: -0.126
log2 fold change [5]: inactive: -0.031
log2 fold change [6]: inactive: -0.008
log2 fold change [7]: inactive: 0.071
log2 fold change [8]: inactive: 0.052

LETMD1 isoform 7 (UniProt Q6P1Q0)
log2 fold change [1]: inactive: -0.093
log2 fold change [2]: inactive: 0.04
log2 fold change [3]: inactive: 0.061
log2 fold change [9]: inactive: 0.073
log2 fold change [5]: inactive: 0.041
log2 fold change [10]: inactive: -0.051
log2 fold change [6]: inactive: 0.033
log2 fold change [7]: inactive: 0.083
log2 fold change [8]: inactive: 0.078

LIMK1 (UniProt P53667)
log2 fold change [1]: inactive: -0.016
log2 fold change [2]: inactive: -0.039
log2 fold change [3]: inactive: 0.277
log2 fold change [10]: inactive: 0.061
log2 fold change [7]: inactive: 0.061

LDLR (UniProt P01130)
log2 fold change [1]: inactive: -0.005
log2 fold change [2]: active: -0.363
log2 fold change [3]: inactive: -0.05
log2 fold change [4]: inactive: -0.045
log2 fold change [5]: inactive: -0.038
log2 fold change [6]: inactive: -0.094
log2 fold change [7]: inactive: -0.017
log2 fold change [8]: inactive: -0.052

LPGAT1 (UniProt Q92604)
log2 fold change [1]: inactive: -0.01
log2 fold change [2]: inactive: -0.101
log2 fold change [3]: inactive: 0.073
log2 fold change [4]: inactive: 0.015
log2 fold change [6]: inactive: 0.16
log2 fold change [7]: inactive: -0.038
log2 fold change [8]: inactive: -0.237

LRCH4 (UniProt O75427)
log2 fold change [1]: inactive: 0.019
log2 fold change [2]: inactive: -0.031
log2 fold change [3]: inactive: -0.078
log2 fold change [9]: inactive: -0.236
log2 fold change [5]: inactive: -0.01
log2 fold change [6]: inactive: 0.249
log2 fold change [7]: inactive: 0.176
log2 fold change [8]: inactive: -0.095

LRBA, A0A494BZW2
log2 fold change [1]: inactive: 0.013
log2 fold change [2]: inactive: -0.053
log2 fold change [3]: inactive: 0.114
log2 fold change [4]: inactive: 0.104
log2 fold change [5]: inactive: 0.041
log2 fold change [6]: inactive: -0.004
log2 fold change [7]: inactive: 0.036
log2 fold change [8]: inactive: -0.182

LAMP2 (UniProt P13473)
log2 fold change [1]: inactive: 0.055
log2 fold change [2]: inactive: 0.043
log2 fold change [3]: inactive: 0.006
log2 fold change [4]: inactive: -0.051
log2 fold change [5]: inactive: -0.104
log2 fold change [6]: inactive: -0.062
log2 fold change [7]: inactive: -0.039
log2 fold change [8]: inactive: -0.001

LRFN1 (UniProt Q9P244)
log2 fold change [1]: inactive: 0.108
log2 fold change [2]: inactive: -0.006
log2 fold change [3]: inactive: -0.15
log2 fold change [4]: inactive: -0.198
log2 fold change [6]: inactive: 0.009
log2 fold change [7]: inactive: -0.09
log2 fold change [8]: inactive: 0.102

LRP6 (UniProt O75581)
log2 fold change [1]: inactive: -0.106
log2 fold change [2]: inactive: -0.036
log2 fold change [4]: inactive: 0.066
log2 fold change [9]: inactive: 0.111
log2 fold change [5]: inactive: -0.007
log2 fold change [10]: inactive: -0.036
log2 fold change [6]: inactive: -0.071
log2 fold change [7]: inactive: -0.156

LIMD1 (UniProt Q9UGP4)
log2 fold change [1]: inactive: -0.03
log2 fold change [2]: inactive: 0.005
log2 fold change [3]: inactive: -0.007
log2 fold change [4]: inactive: -0.071
log2 fold change [5]: inactive: 0.011
log2 fold change [6]: inactive: 0.042
log2 fold change [7]: inactive: -0.01
log2 fold change [8]: inactive: 0.008

LMNB2 (UniProt Q03252)
log2 fold change [1]: inactive: 0.007
log2 fold change [2]: inactive: 0.039
log2 fold change [3]: inactive: 0.179
log2 fold change [4]: inactive: 0.079
log2 fold change [5]: inactive: -0.003
log2 fold change [6]: inactive: 0.033
log2 fold change [7]: inactive: 0.019
log2 fold change [8]: inactive: 0.016

LIG3 (UniProt P49916)
log2 fold change [1]: inactive: -0.01
log2 fold change [4]: inactive: 0.326
log2 fold change [9]: inactive: -0.178
log2 fold change [5]: inactive: 0.144
log2 fold change [6]: inactive: 0.014

LMBR1 isoform 3 (UniProt Q8WVP7)
log2 fold change [1]: inactive: 0.086
log2 fold change [2]: inactive: -0.198
log2 fold change [3]: inactive: 0.019
log2 fold change [4]: inactive: -0.05
log2 fold change [5]: active: -0.812
log2 fold change [6]: inactive: 0.04
log2 fold change [7]: inactive: 0.032
log2 fold change [8]: inactive: -0.477

LBR (UniProt Q14739)
log2 fold change [1]: inactive: 0.025
log2 fold change [2]: inactive: 0.152
log2 fold change [3]: inactive: 0.016
log2 fold change [4]: inactive: -0.031
log2 fold change [5]: active: -0.359
log2 fold change [6]: inactive: 0.017
log2 fold change [7]: inactive: -0.02
log2 fold change [8]: inactive: -0.08

LONP2 (UniProt Q86WA8)
log2 fold change [1]: inactive: -0.004
log2 fold change [2]: inactive: 0.072
log2 fold change [3]: inactive: 0.026
log2 fold change [4]: inactive: 0.113
log2 fold change [5]: inactive: 0.017
log2 fold change [6]: inactive: -0.094
log2 fold change [7]: inactive: 0.073
log2 fold change [8]: inactive: 0.092

LMNB1 (UniProt P20700)
log2 fold change [1]: inactive: -0.01
log2 fold change [2]: inactive: 0.038
log2 fold change [3]: inactive: 0.108
log2 fold change [4]: inactive: -0.172
log2 fold change [5]: inactive: -0.03
log2 fold change [6]: inactive: -0.022
log2 fold change [7]: inactive: -0.003
log2 fold change [8]: inactive: 0.041

LPP (UniProt Q93052)
log2 fold change [1]: inactive: 0.148
log2 fold change [2]: inactive: 0.175
log2 fold change [3]: inactive: 0.143
log2 fold change [7]: inactive: -0.206

LIPT2 (UniProt A6NK58)
log2 fold change [1]: inactive: -0.015
log2 fold change [3]: inactive: -0.142
log2 fold change [9]: inactive: -0.051
log2 fold change [10]: inactive: -0.017
log2 fold change [6]: inactive: 0.041

LEMD2 (UniProt Q8NC56)
log2 fold change [1]: inactive: -0.001
log2 fold change [2]: active: -0.286
log2 fold change [3]: inactive: 0.084
log2 fold change [4]: inactive: -0.057
log2 fold change [5]: inactive: -0.17
log2 fold change [6]: inactive: 0.109
log2 fold change [7]: inactive: 0.079
log2 fold change [8]: active: -0.438

LARP4 isoform 4 (UniProt Q71RC2)
log2 fold change [1]: inactive: -0.027
log2 fold change [2]: inactive: -0.098
log2 fold change [3]: active: -0.308
log2 fold change [4]: inactive: 0.177
log2 fold change [5]: inactive: 0
log2 fold change [6]: inactive: 0.06
log2 fold change [7]: inactive: 0.104
log2 fold change [8]: inactive: -0.237
